Experimental findings from the supplement of paper PMC4604168 (melanoma cell lines) are described below.

Some test systems named below: WM115; WM1716; WM1745; WM3526; WM3619; WM451Lu.
What all share (test): cleaved PARP positive nuclei fraction relative to DMSO control; melanoma cells; higher = more apoptosis
Holding throughout (settings): library dose: low library concentration; 72 h

The other results are listed elsewhere or left out. Repeats are few or missing, and single values can be far off.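 Cells were imaged in 1,536-well plates, and nuclei stained with an antibody against cleaved PARP were counted against all DNA-stained nuclei to give the apoptosis fraction. Screening doses were chosen to leave most cells alive, and resting and induced cleaved-PARP levels differ strongly between cell lines.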

Consider `NC1(c2ccc(-c3nc4ccn5c(=O)[nH]nc5c4cc3-c3ccccc3)cc2)CCC1` + Cn1c(Nc2ccc(C(F)(F)F)cc2)nc2cc(Oc3ccnc(-c4ncc(C(F)(F)F)[nH]4)c3)ccc21 [CHIR265] (first compound 0.4 µM, partner dose 0.08 µM), for which the “cleaved PARP positive nuclei fraction” value in the test with WM115 worked out at 1960%; in the test on WM1716, 316%; with WM1745, 116%; in the test with WM3526, 264%; in the test with WM3619, 113%; in the test with WM451Lu, 49.1%.

For the compound `CC1(C)CCC(c2ccc(Cl)cc2)=C(CN2CCN(c3ccc(C(=O)NS(=O)(=O)c4ccc(N[C@H](CCN5CCOCC5)CSc5ccccc5)c(S(=O)(=O)C(F)(F)F)c4)cc3)CC2)C1` + CN(C)S(=O)(=O)c1ccc2c(c1)/C(=C/c1cc3c([nH]1)CCCC3)C(=O)N2 [SU6656] (first compound 0.4 µM, partner dose 0.4 µM), the “cleaved PARP positive nuclei fraction” value in the test on WM115 amounted to 524%; in the test on WM1716, 133%; with WM1745 it was 1110%; with WM3526, 55.4%; with WM3619, 99.2%; in the test on WM451Lu, 36.7%.

Consider `CC1(C)CCC(c2ccc(Cl)cc2)=C(CN2CCN(c3ccc(C(=O)NS(=O)(=O)c4ccc(N[C@H](CCN5CCOCC5)CSc5ccccc5)c(S(=O)(=O)C(F)(F)F)c4)cc3)CC2)C1` + O=C(Nc1ccccc1)c1cc([N+](=O)[O-])ccc1Cl [GW9662] (first compound 0.4 µM, partner dose 2 µM), for which the “cleaved PARP positive nuclei fraction” value came out at 166% in the test with WM115; 63.9% in the test on WM1716; 332% in the test on WM1745; 86% in the test on WM3526; 117% with WM3619; 40.6% with WM451Lu.

Regarding `COc1ccc(C2=N[C@@H](c3ccc(Cl)cc3)[C@@H](c3ccc(Cl)cc3)N2C(=O)N2CCNC(=O)C2)c(OC(C)C)c1` [Nutlin-3] + CN(C)S(=O)(=O)c1ccc2c(c1)/C(=C/c1cc3c([nH]1)CCCC3)C(=O)N2 [SU6656] (first compound 0.1 µM, partner dose 0.4 µM), the “cleaved PARP positive nuclei fraction” value in the test with WM115 amounted to 45.6%; in the test with WM1716, 15.3%; in the test on WM1745, 109%; with WM3526, 100%; in the test on WM3619, 77.7%; in the test with WM451Lu, 78.2%.

With `C[C@@H](N)c1ccc(C(=O)Nc2ccnc3[nH]ccc23)cc1` + C[C@]1(O)C[C@@H](c2nc(-c3ccc4ccc(-c5ccccc5)nc4c3)c3c(N)nccn32)C1 [OSI906] (first compound 0.4 µM, partner dose 0.4 µM), the “cleaved PARP positive nuclei fraction” value turned out to be 168% with WM115; 209% in the test with WM1716; 158% in the test with WM1745; 245% in the test on WM3526; 113% in the test with WM3619; 197% with WM451Lu.

`C[C@@H](N)c1ccc(C(=O)Nc2ccnc3[nH]ccc23)cc1` + NC(=O)c1ccc(N(C(N)=O)c2c(F)cccc2F)nc1-c1ccc(F)cc1F [VX702] (first compound 0.4 µM, partner dose 0.4 µM): the “cleaved PARP positive nuclei fraction” value in the test on WM115 was 94.7%; in the test with WM1716 it was 389%; in the test on WM1745 it was 113%; with WM3526 it was 112%; with WM3619, 73.2%; with WM451Lu, 60.7%.

On to `COc1ccc(C2=N[C@@H](c3ccc(Cl)cc3)[C@@H](c3ccc(Cl)cc3)N2C(=O)N2CCNC(=O)C2)c(OC(C)C)c1` [Nutlin-3] + C[C@]1(O)C[C@@H](c2nc(-c3ccc4ccc(-c5ccccc5)nc4c3)c3c(N)nccn32)C1 [OSI906] (first compound 0.1 µM, partner dose 0.4 µM), for which the “cleaved PARP positive nuclei fraction” value with WM115 was 80.4%; in the test on WM1716, 105%; with WM1745 it was 138%; with WM3526 it was 60.9%; in the test with WM3619, 117%; in the test with WM451Lu, 120%.

On to `C[C@]1(O)C[C@@H](c2nc(-c3ccc4ccc(-c5ccccc5)nc4c3)c3c(N)nccn32)C1` + C#Cc1cccc(Nc2ncnc3cc(OCCOC)c(OCCOC)cc23)c1 [erlotinib] (first compound 0.4 µM, partner dose 0.8 µM), for which the “cleaved PARP positive nuclei fraction” value was 54% with WM115; 101% in the test on WM1716; 124% in the test with WM1745; 74.3% in the test with WM3526; 97.1% in the test with WM3619; 89.4% in the test with WM451Lu.

For `CC1(C)CCC(c2ccc(Cl)cc2)=C(CN2CCN(c3ccc(C(=O)NS(=O)(=O)c4ccc(N[C@H](CCN5CCOCC5)CSc5ccccc5)c(S(=O)(=O)C(F)(F)F)c4)cc3)CC2)C1` + Cc1cn(-c2cc(NC(=O)c3ccc(C)c(Nc4nccc(-c5cccnc5)n4)c3)cc(C(F)(F)F)c2)cn1 [nilotinib] (first compound 0.4 µM, partner dose 0.2 µM), the “cleaved PARP positive nuclei fraction” value in the test on WM115 worked out at 274%; in the test with WM1716, 42%; in the test on WM1745, 681%; in the test with WM3526, 91.5%; with WM3619 it was 111%; in the test on WM451Lu, 69.7%.

Regarding `C[C@]1(O)C[C@@H](c2nc(-c3ccc4ccc(-c5ccccc5)nc4c3)c3c(N)nccn32)C1` + O=C(CCCCCCC(=O)Nc1ccccc1)NO [vorinostat] (first compound 0.4 µM, partner dose 0.08 µM), the “cleaved PARP positive nuclei fraction” value turned out to be 63.2% in the test with WM115; 121% in the test on WM1716; 99.8% in the test on WM1745; 162% with WM3526; 116% in the test on WM3619; 89.4% in the test on WM451Lu.

For `CN(c1ncccc1CNc1nc(Nc2ccc3c(c2)CC(=O)N3)ncc1C(F)(F)F)S(C)(=O)=O` + O=C(O)C(=O)Nc1sc2c(c1C(=O)O)CCNC2 [TCS401] (first compound 0.08 µM, partner dose 1.66667 µM), the “cleaved PARP positive nuclei fraction” value came out at 125% in the test on WM115; 344% in the test on WM1716; 131% in the test on WM1745; 66.6% with WM3526; 94.7% in the test with WM3619; 258% with WM451Lu.
